System: primary rat hepatocytes
Test: Microarray gene expression analysis (Affymetrix rat array) of toxin-exposed hepatocytes, with linear discriminant score
Type: cell-based
Conditions: 24 hrs, high dose
Description: Identification of toxicity markers was performed by microarray analysis and by the AlamarBlue® assay, a classical measure of cytotoxicity. The AlamarBlue® assay was performed in triplicate.
The source of the primary rat hepatocytes was Sprague Dawley Outbred CDs Rats (CRL:CD®[SD] IGS BR, Charles River Laboratories). […] Primary rat hepatocytes were received the day after the cells were removed from the animals. After arrival, the cells, the cells were incubated overnight (˜15 hrs) before the toxin was added to the cultures. […] Toxin or vehicle was administered to hepatocyte cultures as follows. For each treatment, i.e., vehicle alone, vehicle+toxin at low dose, or vehicle+toxin at high dose, cells were harvested after 3, 6 and 24-hour incubations with the toxin solution or with the vehicle.
More than 10^7 cells are typically prepared for each sample. RNA was collected at 3, 6 and 24 hours following addition of the toxin according to the following procedure.
Each flask contained ˜10-20 million cells. The contents of each flask were mixed vigorously for one minute with a vortex mixer and then aspirated up and down 5 times with a pipette. The contents of each flask (˜12 ml each) was collected into a 50 ml conical polypropylene tissue culture tube (Falcon), snap frozen in liquid nitrogen and stored at ≦−86° C.
Microarray sample preparation was conducted with minor modifications, following the protocols set forth in the Affymetrix GeneChip® Expression Analysis Manual. Frozen cells were ground to a powder using a Spex Certiprep 6800 Freezer Mill. Total RNA was extracted with Trizol (GibcoBRL) utilizing the manufacturer's protocol. […] Double stranded cDNA was generated from mRNA using the SuperScript Choice system (GibcoBRL). First strand cDNA synthesis was primed with a T7-(dT24) oligonucleotide. The cDNA was phenol-chloroform extracted and ethanol precipitated to a final concentration of […]. From 2 μg of cDNA, cRNA was synthesized using Ambion's T7 MegaScript in vitro Transcription Kit.
To biotin label the cRNA, nucleotides Bio-11-CTP and Bio-16-UTP (Enzo Diagnostics) were added to the reaction. Following a 37° C. incubation for six hours, impurities were removed from the labeled cRNA following the RNeasy Mini kit protocol (Qiagen). cRNA was fragmented (fragmentation buffer consisting of 200 mM Tris-acetate, pH 8.1, 500 mM KOAc, 150 mM MgOAc) for thirty-five minutes at 94° C. Following the Affymetrix protocol, 55 μg of fragmented cRNA was hybridized on the Affymetrix rat array set for twenty-four hours at 60 rpm in a 45° C. hybridization oven. The chips were washed and stained with Streptavidin Phycoerythrin (SAPE) (Molecular Probes) in Affymetrix fluidics stations. To amplify staining, SAPE solution was added twice with an anti-streptavidin biotinylated antibody (Vector Laboratories) staining step in between. Hybridization to the probe arrays was detected by fluorometric scanning (Hewlett Packard Gene Array Scanner). Data was analyzed using Affymetrix GeneChip® version 3.0 and Expression Data Mining Tool (EDMT) software (version 1.0), S-Plus, and the GeneExpress® software system.
Each gene is identified by its Gene Logic identification number and can be cross-referenced to a gene name and representative SEQ ID NO. in Table 1.

SMILES: CCCCc1oc2ccccc2c1C(=O)c1cc(I)c(OCCN(CC)CC)c(I)c1 [Amiodarone]
- Mean Tox, GLGC ID NO. 382: −29.6223
- Mean Tox, GLGC ID NO. 570: 508.8248
- Mean Tox, GLGC ID NO. 575: 31.8003
- Mean Tox, GLGC ID NO. 588: 82.1803
- Mean Tox, GLGC ID NO. 670: 81.5793
- Mean Tox, GLGC ID NO. 771: 91.2233
- Mean Tox, GLGC ID NO. 818: 380.2108
- Mean Tox, GLGC ID NO. 820: 143.5745
- Mean Tox, GLGC ID NO. 1037: 164.9610
- Mean Tox, GLGC ID NO. 1130: 302.9488
- Mean Tox, GLGC ID NO. 1146: 96.6360
- Mean Tox, GLGC ID NO. 1148: 590.6433
- Mean Tox, GLGC ID NO. 1376: 31.9268
- Mean Tox, GLGC ID NO. 1504: 81.2268
- Mean Tox, GLGC ID NO. 1546: 30.2790
- Mean Tox, GLGC ID NO. 1583: 219.5193
- Mean Tox, GLGC ID NO. 1798: 339.0583
- Mean Tox, GLGC ID NO. 1818: 302.7925
- Mean Tox, GLGC ID NO. 1850: 806.1135
- Mean Tox, GLGC ID NO. 1854: 714.9543
- Mean Tox, GLGC ID NO. 1925: 197.1045
- Mean Tox, GLGC ID NO. 1942: −4.0835
- Mean Tox, GLGC ID NO. 2528: 556.9448
- Mean Tox, GLGC ID NO. 2818: 739.8768
- Mean Tox, GLGC ID NO. 3062: 390.7458
- Mean Tox, GLGC ID NO. 3475: 215.6923
- Mean Tox, GLGC ID NO. 3917: 54.9983
- Mean Tox, GLGC ID NO. 4517: 115.6470
- Mean Tox, GLGC ID NO. 4521: 142.5955
- Mean Tox, GLGC ID NO. 4547: 164.5733
- Mean Tox, GLGC ID NO. 4593: 579.0483
- Mean Tox, GLGC ID NO. 4594: 966.2893
- Mean Tox, GLGC ID NO. 5355: 178.6520
- Mean Tox, GLGC ID NO. 5377: 87.0393
- Mean Tox, GLGC ID NO. 5497: 35.1683
- Mean Tox, GLGC ID NO. 6005: 984.5308
- Mean Tox, GLGC ID NO. 6049: 2163.6495
- Mean Tox, GLGC ID NO. 6425: 258.8950
- Mean Tox, GLGC ID NO. 6808: 812.3230
- Mean Tox, GLGC ID NO. 7147: 508.5110
- Mean Tox, GLGC ID NO. 7359: 273.9243
- Mean Tox, GLGC ID NO. 7459: 678.6165
- Mean Tox, GLGC ID NO. 7596: 400.8305
- Mean Tox, GLGC ID NO. 7683: 1272.7238
- Mean Tox, GLGC ID NO. 8057: 76.9045
- Mean Tox, GLGC ID NO. 8182: 255.6065
- Mean Tox, GLGC ID NO. 8266: 606.4828
- Mean Tox, GLGC ID NO. 8599: 90.3548
- Mean Tox, GLGC ID NO. 8926: 358.0805
- Mean Tox, GLGC ID NO. 9399: 391.2453
- Mean Tox, GLGC ID NO. 10503: 55.4060
- Mean Tox, GLGC ID NO. 11173: 156.9755
- Mean Tox, GLGC ID NO. 11550: 93.4875
- Mean Tox, GLGC ID NO. 12299: 215.0775
- Mean Tox, GLGC ID NO. 12354: 473.1683
- Mean Tox, GLGC ID NO. 12479: 428.2905
- Mean Tox, GLGC ID NO. 12769: 172.1220
- Mean Tox, GLGC ID NO. 12908: 721.7805
- Mean Tox, GLGC ID NO. 12916: 64.4325
- Mean Tox, GLGC ID NO. 13005: 304.0158
- Mean Tox, GLGC ID NO. 14034: 164.4735
- Mean Tox, GLGC ID NO. 14656: 157.5353
- Mean Tox, GLGC ID NO. 15500: 645.6283
- Mean Tox, GLGC ID NO. 15644: 846.1423
- Mean Tox, GLGC ID NO. 15661: 64.1050
- Mean Tox, GLGC ID NO. 15682: 109.9260
- Mean Tox, GLGC ID NO. 15891: 664.6183
- Mean Tox, GLGC ID NO. 16017: 93.8553
- Mean Tox, GLGC ID NO. 16018: 249.3688
- Mean Tox, GLGC ID NO. 16314: 117.0538
- Mean Tox, GLGC ID NO. 16346: 354.4890
- Mean Tox, GLGC ID NO. 16376: 36.7405
- Mean Tox, GLGC ID NO. 16496: 405.5363
- Mean Tox, GLGC ID NO. 16524: 85.1848
- Mean Tox, GLGC ID NO. 16650: 984.8695
- Mean Tox, GLGC ID NO. 16708: 153.2685
- Mean Tox, GLGC ID NO. 16865: 290.6443
- Mean Tox, GLGC ID NO. 16895: 8.7830
- Mean Tox, GLGC ID NO. 16947: 89.0373
- Mean Tox, GLGC ID NO. 17039: 245.4835
- Mean Tox, GLGC ID NO. 17271: 48.2335
- Mean Tox, GLGC ID NO. 17604: 154.1105
- Mean Tox, GLGC ID NO. 17754: 861.7003
- Mean Tox, GLGC ID NO. 17999: 430.8943
- Mean Tox, GLGC ID NO. 18069: 119.5903
- Mean Tox, GLGC ID NO. 18578: 365.2230
- Mean Tox, GLGC ID NO. 18612: 388.6913
- Mean Tox, GLGC ID NO. 18725: 15.4600
- Mean Tox, GLGC ID NO. 18730: 259.6305
- Mean Tox, GLGC ID NO. 18765: 188.8203
- Mean Tox, GLGC ID NO. 18800: 585.7013
- Mean Tox, GLGC ID NO. 18881: 33.6695
- Mean Tox, GLGC ID NO. 18883: 127.7325
- Mean Tox, GLGC ID NO. 18909: 67.8935
- Mean Tox, GLGC ID NO. 19059: 81.7113
- Mean Tox, GLGC ID NO. 19101: 282.6973
- Mean Tox, GLGC ID NO. 19144: 23.3323
- Mean Tox, GLGC ID NO. 19177: 116.8100
- Mean Tox, GLGC ID NO. 19206: 90.8053
- Mean Tox, GLGC ID NO. 19226: 314.5943
- Mean Tox, GLGC ID NO. 19227: 237.5478
- Mean Tox, GLGC ID NO. 19555: 116.1578
- Mean Tox, GLGC ID NO. 19631: 102.9018
- Mean Tox, GLGC ID NO. 19679: 19.2213
- Mean Tox, GLGC ID NO. 20405: 39.4923
- Mean Tox, GLGC ID NO. 20421: 96.5418
- Mean Tox, GLGC ID NO. 20586: 20.1963
- Mean Tox, GLGC ID NO. 20698: 10.6448
- Mean Tox, GLGC ID NO. 20700: 938.3848
- Mean Tox, GLGC ID NO. 20745: 1186.4775
- Mean Tox, GLGC ID NO. 20746: 1890.1518
- Mean Tox, GLGC ID NO. 20778: 113.9043
- Mean Tox, GLGC ID NO. 20960: 936.4035
- Mean Tox, GLGC ID NO. 20971: 152.5923
- Mean Tox, GLGC ID NO. 21001: 253.3903
- Mean Tox, GLGC ID NO. 21350: 59.4465
- Mean Tox, GLGC ID NO. 21842: 1093.5040
- Mean Tox, GLGC ID NO. 21882: 375.2395
- Mean Tox, GLGC ID NO. 21885: 125.6663
- Mean Tox, GLGC ID NO. 22079: 1171.8738
- Mean Tox, GLGC ID NO. 22387: 1501.9503
- Mean Tox, GLGC ID NO. 22413: 1529.8625
- Mean Tox, GLGC ID NO. 22586: 142.2270
- Mean Tox, GLGC ID NO. 22746: 17.7768
- Mean Tox, GLGC ID NO. 22801: 437.7643
- Mean Tox, GLGC ID NO. 22883: 196.2880
- Mean Tox, GLGC ID NO. 23162: 84.0273
- Mean Tox, GLGC ID NO. 23192: 202.7878
- Mean Tox, GLGC ID NO. 23200: 229.5073
- Mean Tox, GLGC ID NO. 23324: 199.6150
- Mean Tox, GLGC ID NO. 23343: 85.2673
- Mean Tox, GLGC ID NO. 23660: 451.7370
- Mean Tox, GLGC ID NO. 23808: 130.0633
- Mean Tox, GLGC ID NO. 24105: 80.1058
- Mean Tox, GLGC ID NO. 24326: 1265.2950
- Mean Tox, GLGC ID NO. 24362: 414.5140
- Mean Tox, GLGC ID NO. 24453: 8.2448
- Mean Tox, GLGC ID NO. 24645: 39.1603
- Mean Tox, GLGC ID NO. 24670: 39.2255
- Mean Tox, GLGC ID NO. 24693: 5.9428
- Mean Tox, GLGC ID NO. 25204: 20.8115
- Mean Tox, GLGC ID NO. 25325: 104.6418
- Mean Tox, GLGC ID NO. 25326: 879.7590
- Mean Tox, GLGC ID NO. 25694: 27.6885
- Mean Tox, GLGC ID NO. 25799: 573.4228
- Mean Tox, GLGC ID NO. 26032: 67.3053

From patent US7469185B2, “Primary rat hepatocyte toxicity modeling” (Ocimum Biosolutions, Inc., priority 2002, dated 2008)
